Experimental data from PMC10920880.
Construct, isoform or probe ends are uncertain for at least one entry. For some of these results: Weaker means in comparison with the reference protein, sequence or condition of that experiment. For some of these results: Whether high values mean tight binding is not given here for every scale.

Assays:
[1] = target: Hfq:Y25D (distal face mutant) (Escherichia coli K12) (UniProt P0A6X3); experiment: smFRET; conditions: sRNA (N13)-Hfq, smFRET: 10 mM Tris-HCl pH 7.5, 50 mM NaCl, 50 mM KCl, 4 mM Trolox, 0.01% Nikkol, 0.8% glucose, RNasin, oxygen scavenger, recombinant protein, label: tether 5' biotin, 3' Cy5
[2] = target: Hfq:Y25D (distal face mutant) (Escherichia coli K12) (UniProt P0A6X3); experiment: competition (TTG ASO accessibility); conditions: 5 nM Y25D, no protection of the AAC motif, free mRNA 69 ± 3%; internal Cy5 after nt 35; EMSA: 1x TNK, 5% glycerol, 15 min RT, native 8% PAGE 1x TBE 4 C; recombinant protein

Sequence | binding result [1] | other results
GGACUCUAUCGAGUCCAACAACAACAACGACCUCGCGCCCAGGACGACACACUUUGGACAGGACACACAGGACACAGG / CCTGTGTCCTGTGTGTCCTGTCCAAAGTGTGTCGTCC [(AAC)4-N0-S6 mRNA on DNA tether] | – | binding result ([1]; annealing at no-Hfq level): binds more weakly
GGACUCUAUCGAGUCCAACAACAACAACUCUACCAUCACCUAAGACCUCGCGCCCAGGACGACACACUUUGGACAGGACACACAGGACACAGG / CCTGTGTCCTGTGTGTCCTGTCCAAAGTGTGTCGTCC [(AAC)4-N15-S6 mRNA on DNA tether] | binds more weakly | –
GGACUCUAUCGAGUCCAACAACAACAACUCUACCAUCACCUAAACUUUACUCUACCAUCACCAGACCUCGCGCCCAGGACGACACACUUUGGACAGGACACACAGGACACAGG / CCTGTGTCCTGTGTGTCCTGTCCAAAGTGTGTCGTCC [(AAC)4-N35-S6 mRNA on DNA tether] | binds more weakly | –
GGACUCUAUCGAGUCCAACAACAACAACAACAACCCCUGCAUCACCUAAACUUUACUCUACCAUCACCAGACCUCGCGCCCAGGACGACACACUUUGGACAGGACACACAGGACACAGG / CCTGTGTCCTGTGTGTCCTGTCCAAAGTGTGTCGTCC [(AAC)6-Cy5-N35-S6 mRNA on DNA tether] | – | binding signal (% mRNA accessible to TTG ASO) [2]: 67
